Results as given in PMC4566084.
Results are given in words; binding and its absence hold for the method and conditions named. In cells and extracts the contact can be indirect. Some results given as binding are weak or reduced against the parent protein; the word gives no strength. Tags and fused reporters may be left off the sequences shown.

Sequences of proteins named here, by UniProt entry; tags and fusion partners are left off. A change or cut given only in a name is not applied to a line headed by its entry.
UniProt Q15797: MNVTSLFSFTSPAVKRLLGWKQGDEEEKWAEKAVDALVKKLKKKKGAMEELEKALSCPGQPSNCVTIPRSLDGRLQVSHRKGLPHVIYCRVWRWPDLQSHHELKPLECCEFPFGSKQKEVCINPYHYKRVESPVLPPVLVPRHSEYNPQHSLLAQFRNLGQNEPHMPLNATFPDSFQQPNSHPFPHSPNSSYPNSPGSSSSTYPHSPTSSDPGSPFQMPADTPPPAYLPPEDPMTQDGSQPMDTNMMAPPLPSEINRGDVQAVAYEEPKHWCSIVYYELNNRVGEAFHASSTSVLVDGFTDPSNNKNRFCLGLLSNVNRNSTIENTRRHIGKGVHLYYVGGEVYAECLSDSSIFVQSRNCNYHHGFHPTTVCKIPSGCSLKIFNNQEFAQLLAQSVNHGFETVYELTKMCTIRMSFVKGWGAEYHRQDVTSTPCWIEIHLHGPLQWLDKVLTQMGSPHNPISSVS
UniProt Q7Z3T8: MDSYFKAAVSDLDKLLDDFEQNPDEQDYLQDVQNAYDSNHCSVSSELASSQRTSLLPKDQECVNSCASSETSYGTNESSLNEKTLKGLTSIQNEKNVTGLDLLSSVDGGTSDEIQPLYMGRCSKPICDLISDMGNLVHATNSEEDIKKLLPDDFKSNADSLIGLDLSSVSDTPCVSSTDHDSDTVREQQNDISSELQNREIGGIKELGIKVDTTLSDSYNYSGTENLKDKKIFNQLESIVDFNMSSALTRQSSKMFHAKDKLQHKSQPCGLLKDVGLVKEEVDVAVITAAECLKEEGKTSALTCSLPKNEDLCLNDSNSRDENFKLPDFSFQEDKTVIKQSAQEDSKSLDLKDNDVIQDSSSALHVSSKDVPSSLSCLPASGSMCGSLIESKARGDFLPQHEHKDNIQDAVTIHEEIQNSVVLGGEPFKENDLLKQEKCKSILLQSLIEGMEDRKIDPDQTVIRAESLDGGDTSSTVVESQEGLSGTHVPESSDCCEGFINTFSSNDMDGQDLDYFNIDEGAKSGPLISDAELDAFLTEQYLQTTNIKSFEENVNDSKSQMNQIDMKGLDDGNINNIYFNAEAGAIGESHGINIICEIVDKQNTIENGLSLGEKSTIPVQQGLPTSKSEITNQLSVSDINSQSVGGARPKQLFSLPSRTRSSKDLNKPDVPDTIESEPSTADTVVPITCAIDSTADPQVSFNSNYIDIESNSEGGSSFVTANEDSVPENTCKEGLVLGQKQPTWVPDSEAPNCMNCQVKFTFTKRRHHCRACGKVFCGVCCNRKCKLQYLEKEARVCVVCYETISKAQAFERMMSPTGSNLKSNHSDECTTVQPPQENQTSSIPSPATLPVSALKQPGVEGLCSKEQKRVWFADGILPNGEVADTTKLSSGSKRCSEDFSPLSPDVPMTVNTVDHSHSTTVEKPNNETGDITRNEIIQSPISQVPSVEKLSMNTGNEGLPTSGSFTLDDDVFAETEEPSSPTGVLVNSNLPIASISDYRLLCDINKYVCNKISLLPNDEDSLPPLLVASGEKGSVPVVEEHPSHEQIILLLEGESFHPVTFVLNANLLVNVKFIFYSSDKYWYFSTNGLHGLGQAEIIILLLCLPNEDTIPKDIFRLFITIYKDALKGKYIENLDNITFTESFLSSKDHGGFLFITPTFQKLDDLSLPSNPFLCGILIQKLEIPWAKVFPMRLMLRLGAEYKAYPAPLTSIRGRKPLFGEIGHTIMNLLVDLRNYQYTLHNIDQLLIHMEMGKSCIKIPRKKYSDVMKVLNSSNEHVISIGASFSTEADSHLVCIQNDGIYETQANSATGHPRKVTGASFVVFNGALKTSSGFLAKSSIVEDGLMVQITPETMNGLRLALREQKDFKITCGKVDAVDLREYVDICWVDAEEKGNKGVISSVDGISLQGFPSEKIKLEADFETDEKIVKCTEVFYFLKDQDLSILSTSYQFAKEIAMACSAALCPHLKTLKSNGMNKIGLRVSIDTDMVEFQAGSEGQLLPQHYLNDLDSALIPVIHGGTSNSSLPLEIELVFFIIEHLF

Molecular target: SMAD1 (human (endogenous in HepG2/C3A)) (UniProt Q15797)
Assay: proximity ligation; Duolink PLA in fixed, permeabilised HepG2/C3A cells transfected 48 hr with myc-tagged endofin or myc-tagged SARA; mouse anti-Myc paired with rabbit anti-SMAD1 or rabbit anti-SMAD2/3; proteins in close proximity (<40 nm)

| binding | Molecule |
| --- | --- |
| binds | myc-tagged endofin (endosome-associated FYVE-domain protein) (from UniProt Q7Z3T8 1-1539) |
| no binding | myc-tagged SARA (SMAD anchor for receptor activation) (protein, UniProt O95405 1-1425) MENYFQAEAYNLDKVLDEFEQNEDETVSSTLLDTKWNKILDPPSHRLSFNPTLASVNESAVSNESQPQLKVFSLAHSAPLTTEEEDHCANGQDCNLNPEIATMWIDENAVAEDQLIKRNYSWDDQCSAVEVGEKKCGNLACLPDEKNVLVVAVMHNCDKRTLQNDLQDCNNYNSQSLMDAFSCSLDNENRQTDQFSFSINESTEKDMNSEKQMDPLNRPKTEGRSVNHLCPTSSDSLASVCSPSQLKDDGSIGRDPSMSAITSLTVDSVISSQGTDGCPAVKKQENYIPDEDLTGKISSPRTDLGSPNSFSHMSEGILMKKEPAEESTTEESLRSGLPLLLKPDMPNGSGRNNDCERCSDCLVPNEVRADENEGYEHEETLGTTEFLNMTEHFSESQDMTNWKLTKLNEMNDSQVNEEKEKFLQISQPEDTNGDSGGQCVGLADAGLDLKGTCISESEECDFSTVIDTPAANYLSNGCDSYGMQDPGVSFVPKTLPSKEDSVTEEKEIEESKSECYSNIYEQRGNEATEGSGLLLNSTGDLMKKNYLHNFCSQVPSVLGQSSPKVVASLPSISVPFGGARPKQPSNLKLQIPKPLSDHLQNDFPANSGNNTKNKNDILGKAKLGENSATNVCSPSLGNISNVDTNGEHLESYEAEISTRPCLALAPDSPDNDLRAGQFGISARKPFTTLGEVAPVWVPDSQAPNCMKCEARFTFTKRRHHCRACGKVFCASCCSLKCKLLYMDRKEARVCVICHSVLMNAQAWENMMSASSQSPNPNNPAEYCSTIPPLQQAQASGALSSPPPTVMVPVGVLKHPGAEVAQPREQRRVWFADGILPNGEVADAAKLTMNGTSSAGTLAVSHDPVKPVTTSPLPAETDICLFSGSITQVGSPVGSAMNLIPEDGLPPILISTGVKGDYAVEEKPSQISVMQQLEDGGPDPLVFVLNANLLSMVKIVNYVNRKCWCFTTKGMHAVGQSEIVILLQCLPDEKCLPKDIFNHFVQLYRDALAGNVVSNLGHSFFSQSFLGSKEHGGFLYVTSTYQSLQDLVLPTPPYLFGILIQKWETPWAKVFPIRLMLRLGAEYRLYPCPLFSVRFRKPLFGETGHTIMNLLADFRNYQYTLPVVQGLVVDMEVRKTSIKIPSNRYNEMMKAMNKSNEHVLAGGACFNEKADSHLVCVQNDDGNYQTQAISIHNQPRKVTGASFFVFSGALKSSSGYLAKSSIVEDGVMVQITAENMDSLRQALREMKDFTITCGKADAEEPQEHIHIQWVDDDKNVSKGVVSPIDGKSMETITNVKIFHGSEYKANGKVIRWTEVFFLENDDQHNCLSDPADHSRLTEHVAKAFCLALCPHLKLLKEDGMTKLGLRVTLDSDQVGYQAGSNGQPLPSQYMNDLDSALVPVIHGGACQLSEGPVVMELIFYILENIV |
